Our source for the EC50 values is US8293729B2 (Boehringer Ingelheim International GmbH, priority 2009, dated 2012).

The chains behind the UniProt entries cited, without tags or fusion partners. A line that says so, or that is headed by a name, gives the form on record, which may keep a tag or linker. Residues count along the entry.
UniProt Q8TDV5, 2-335 with tags or gaps S329A/T327A limits assumed: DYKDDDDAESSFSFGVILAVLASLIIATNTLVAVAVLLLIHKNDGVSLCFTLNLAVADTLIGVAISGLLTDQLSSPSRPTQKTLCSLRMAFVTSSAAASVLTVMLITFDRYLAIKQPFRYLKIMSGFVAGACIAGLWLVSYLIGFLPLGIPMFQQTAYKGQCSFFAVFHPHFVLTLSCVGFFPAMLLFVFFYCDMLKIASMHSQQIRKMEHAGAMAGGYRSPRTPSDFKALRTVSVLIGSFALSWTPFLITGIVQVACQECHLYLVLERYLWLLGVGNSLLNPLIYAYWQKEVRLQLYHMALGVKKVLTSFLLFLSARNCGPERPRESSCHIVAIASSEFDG

In this assay the target is human GPR119 receptor (Homo sapiens, UniProt Q8TDV5, S329A/T327A). The assay can be described thus: cAMP assay (LANCE cAMP-384) in HEK293 cells stably expressing mutant human GPR119 receptor. As to conditions: the 31st table. As for the experimental part: Quantitative detection of cAMP accumulation from cells expressing human GPR119 receptor was achieved using Perkin Elmer's LANCE cAMP-384 Kit (Cat#AD0264) according to the manufacturer's protocol. Briefly, HEK293 cells stably expressing a mutant form of the human GPR119 receptor (Methionine 1 replaced with the amino acid sequence […] (SEQ ID NO: 1), and T327 & S329 changed to alanines) were grown to 50-70% confluency in cell culture media (DMEM, 10% heat inactivated Fetal Bovine Serum, 50 I.U./mL penicillin, 50 μg/mL streptomycin, 10 mM HEPES, 20 μg/mL G418 Sulfate). On the day of the assay, GPR119 stable HEK293 cells were lifted from the tissue culture plate and 1000 cells/well were incubated along with various concentrations of test compounds for 20 min at 37° C. Detection Buffer (50mM HEPES, 10mM calcium chloride, 0.35% Triton X-100, 1 mg/mL BSA) containing cAMP-specific antibody was then added to all wells and allowed to equilibrate in the dark for 10 minutes at room temperature. […] After 1 hour, bound europium-labeled cAMP tracer was measured using a Perkin Elmer ViewLux. The quantity of cAMP generated in each well was derived from a standard curve. […]
For some compounds for which no EC50 value could be determined, the efficacy is provided at a single concentration (10 μM) yielding % stimulation values.

The structures given here were assigned with low confidence; some may be wrong.

By EC50 is commonly meant the concentration giving half of the maximal effect. Regarding `CC(C)OC(=O)N1CCC(ON=C2CCN(c3ccc(S(C)(=O)=O)cc3F)C2)CC1`, the EC50 runs as follows: (first isomer, tR 5.34 (E/Z or Z/E)) 1150 nM; (second isomer, tR 5.45 (E/Z or Z/E)) 542 nM.
